Data from article PMC4701952.
These are yes or no findings as the source states them, for the method shown. Some results given as binding are weak or reduced against the parent protein; the word gives no strength.

By UniProt entry, the sequences of proteins in these tests, tags left out. Where a name states a change or a piece, a line headed by the entry shows the natural chain unless it says otherwise.
UniProt P17839: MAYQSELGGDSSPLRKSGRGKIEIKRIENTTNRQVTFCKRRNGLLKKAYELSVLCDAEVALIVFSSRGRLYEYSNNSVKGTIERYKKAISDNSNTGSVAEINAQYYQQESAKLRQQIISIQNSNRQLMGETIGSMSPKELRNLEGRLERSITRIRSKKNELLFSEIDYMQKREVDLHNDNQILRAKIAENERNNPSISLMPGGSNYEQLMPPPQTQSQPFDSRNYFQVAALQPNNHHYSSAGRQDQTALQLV
UniProt O22456: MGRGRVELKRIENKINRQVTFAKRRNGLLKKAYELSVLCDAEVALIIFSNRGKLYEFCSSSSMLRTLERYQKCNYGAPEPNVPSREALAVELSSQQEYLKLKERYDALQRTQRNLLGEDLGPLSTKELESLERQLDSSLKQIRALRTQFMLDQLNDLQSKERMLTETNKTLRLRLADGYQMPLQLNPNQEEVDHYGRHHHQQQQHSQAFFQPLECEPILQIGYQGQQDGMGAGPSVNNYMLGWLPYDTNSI

Biological target: AGAMOUS (AG), full length (A. thaliana) (UniProt P17839)
Assay: native gel or EMSA; in vitro translated proteins (4 ul TnT mix, not purified) with 5-10 nM DY-682 labelled 121 bp SOC1 promoter DNA with two CArG boxes; complexes seen on DNA, assigned as putative dimer and tetramer

Substance	binding
SEP3 full length wild type (from UniProt O22456 1-251)	binds
SEP3^L115R (from UniProt O22456 1-251)	binds
